Results as given in patent US20260098089A1.
Results are given in words; binding and its absence hold for the method and conditions named. Some binding calls cover weakened binding; strength is not graded here.

By UniProt entry, the sequences of proteins in these tests, tags left out. Where a name states a change or a piece, a line headed by the entry shows the natural chain unless it says otherwise.
UniProt P09564: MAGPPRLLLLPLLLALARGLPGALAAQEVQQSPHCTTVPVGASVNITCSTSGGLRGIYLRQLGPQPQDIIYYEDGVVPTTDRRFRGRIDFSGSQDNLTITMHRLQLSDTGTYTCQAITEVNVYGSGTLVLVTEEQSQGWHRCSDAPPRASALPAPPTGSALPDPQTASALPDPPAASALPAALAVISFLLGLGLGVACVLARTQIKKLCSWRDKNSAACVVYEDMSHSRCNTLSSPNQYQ

Legend:
[1] = molecular target: Human CD7 protein (soluble) (human) (UniProt P09564); assay: SPR, mAb captured, single concentration of human CD7 protein as analyte (concentration not given)
[2] = molecular target: Human CD7 protein (soluble) (human) (UniProt P09564); assay: SPR
[3] = molecular target: Human CD7 protein (soluble) (human) (UniProt P09564); assay: SPR, soluble CD7

- binding [1]: binds
- binding [2]: binds
- binding [3]: binds
B1: 1741G09 (antibody, V domains shown)
VH: EVQLVESGGGLVKPGGSLRLSCAASGFSFSVAWMSWVRQAPGKGLEWVGRIKRKTDGGTTDYAAPVKGRFIISRDDSIKALYLQMNSLKTEDTAVYYCTTDPLLRYSDWLSHSLMGDVWGQGTTVTVSS
VL: DIQMTQSPSSLSASVGDRVAITCRTSQNINNYLNWYQQKPGKAPKPLIYAASSLQSGVPSRFSGSGSGTDFTLTISTLHPEDFATYYCQQTYSIPLTFGGGTKVEIK
